Source: US20190225690A1
Results are given in words; binding and its absence hold for the method and conditions named. Some binding calls cover weakened binding; strength is not graded here.

The chains behind the UniProt entries cited, without tags or fusion partners. Where a name states a change or a piece, a line headed by the entry shows the natural chain unless it says otherwise. Residues count along the entry.
UniProt P16410: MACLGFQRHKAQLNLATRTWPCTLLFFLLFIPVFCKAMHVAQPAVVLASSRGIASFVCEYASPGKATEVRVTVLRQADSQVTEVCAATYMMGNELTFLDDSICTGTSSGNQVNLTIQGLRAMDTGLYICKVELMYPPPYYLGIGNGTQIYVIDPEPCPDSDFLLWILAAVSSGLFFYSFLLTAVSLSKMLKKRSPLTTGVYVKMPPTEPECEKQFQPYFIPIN
human CTLA4 on hCTLA4-293T cells: residues 36-223 of P16410
human CTLA4 (construct not stated): residues 36-161 of P16410

T1: cynomolgus macaque CTLA4 (cynomolgus macaque) (UniProt G7PL88)
T1 sequence: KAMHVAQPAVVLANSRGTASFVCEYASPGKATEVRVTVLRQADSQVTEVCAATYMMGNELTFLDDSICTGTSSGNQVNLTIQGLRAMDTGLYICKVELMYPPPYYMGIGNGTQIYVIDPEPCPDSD


Tests used:
[1] = molecular target: human CTLA4 (construct not stated) (human) (UniProt P16410); test: SPR (Biacore 3000), antibody captured
[2] = molecular target: human CTLA4 on hCTLA4-293T cells (human) (UniProt P16410); test: FACS on hCTLA4-293T cells
[3] = molecular target: T1, cynomolgus macaque CTLA4 (cynomolgus macaque); test: protein based ELISA
[4] = molecular target: human CTLA4 (construct not stated) (human) (UniProt P16410); test: protein based ELISA
human CTLA4-hFc (human) = test: ELISA on coated CTLA4-hFc
[5] = molecular target: human CTLA4 (construct not stated) (human) (UniProt P16410); test: SPR (Biacore 3000), antibody captured by anti-mouse Fc mAb, CTLA4 as analyte
[6] = molecular target: human CTLA4 (construct not stated) (human) (UniProt P16410); test: SPR (Biacore 3000)

| Binder | binding [1] | binding [2] | binding [3] | binding [4] | binding (human CTLA4-hFc (human)) | binding [5] | binding [6] |
| --- | --- | --- | --- | --- | --- | --- | --- |
| 6F3 humanized (antibody, human IgG1, kappa, V domains shown) VH: QVQLVQSGAEVKKPGSSVKVSCKASGYTFTDYEMHWVRQAPGQGLEWIGVIDPETGGITYNQKFKGRATLTADKSTSTAYMELSSLRSEDTAVYYCTRRGARATVYNYVMDYWGQGTLVTVSS VL: DIQMTQSPSSLSASVGDRVTITCRASENIHNYLAWYQQKPGKAPKLLVYNAKTLGDGVPSRFSGSGSGTDYTLTISSLQPEDFATYYCQHFWSTPWTFGGGTKVEIKR | – | – | – | – | – | – | binds |
| 6F3 murine (antibody, V domains shown) VH: QVKLQESGAELVRPGASVTLSCKASGYTFTDYEMHWMKQTPVHGLEWIGVIDPETGGITYNQKFKGKATLTADKSSSTAYMEFLSLTSEDSAVYYCTRRGARATVYNYVMDYWGQGTSVTVSS VL: DIVMTQTTASLSASVGETVTITCRASENIHNYLAWYQQKQGRSPQLLVYNAKTLGDGVPSRFSGSGSGTQYSLKINSLQPEDFGSYYCQHFWSTPWTFGGGTKLEIK | binds | – | binds | binds | – | binds | – |

Continued, values first:

| binding [1] | binding [2] | binding [3] | binding [4] | binding (human CTLA4-hFc (human)) | binding [5] | binding [6] | Binder |
| --- | --- | --- | --- | --- | --- | --- | --- |
| binds | binds | binds | binds | binds | binds | – | 10B10 murine (antibody, V domains shown) VH: DVQLQESGPGLVTPSQSLSLTCSVTGYSITSGYSWNWIRQFPGNKLEWMGYIRFDGNNNYNPFLKNRISITRDTSENQFFLKLNSVTTEDTATYYCARNYGTWGAMDFWGQGTSVTVSS VL: DIVLTQSPSSLSASLGGKVTITCKTSQDINKYMAWYQHKPGKGPRLLIYYTSILQPGIPSRFSGSGSGTDYSFSINNLEPEDIATYYCQQYDNLNTFGGGTMLEIK |
| – | – | – | – | – | – | binds | 10B10 humanized (antibody, human IgG1, kappa, V domains shown) VH: QVQLQESGPGLVKPSQTLSLTCAVSGYSITSGYSWNWIRQPPGKGLEWMGYIRFDGNNNYNPFLKNRITISRDTSKNQFSLKLSSVTAADTAVYYCARNYGTWGAMDFWGQGTLVTVSS VL: DIQLTQSPSSLSASVGDRVTITCKTSQDINKYMAWYQQKPGKAPKLLIYYTSILQPGVPSRFSGSGSGTDYTFTISSLQPEDIATYYCQQYDNLNTFGGGTKVEIKR |
